Construct, isoform or probe ends are uncertain for at least one entry. The comparison behind a weaker result is the experiment's own reference, which may not be listed here. Protein sequences can lack the tags named with them.
Molecular target: T1, RIG-I wild type (human) (UniProt O95786)
T1 sequence (looked up): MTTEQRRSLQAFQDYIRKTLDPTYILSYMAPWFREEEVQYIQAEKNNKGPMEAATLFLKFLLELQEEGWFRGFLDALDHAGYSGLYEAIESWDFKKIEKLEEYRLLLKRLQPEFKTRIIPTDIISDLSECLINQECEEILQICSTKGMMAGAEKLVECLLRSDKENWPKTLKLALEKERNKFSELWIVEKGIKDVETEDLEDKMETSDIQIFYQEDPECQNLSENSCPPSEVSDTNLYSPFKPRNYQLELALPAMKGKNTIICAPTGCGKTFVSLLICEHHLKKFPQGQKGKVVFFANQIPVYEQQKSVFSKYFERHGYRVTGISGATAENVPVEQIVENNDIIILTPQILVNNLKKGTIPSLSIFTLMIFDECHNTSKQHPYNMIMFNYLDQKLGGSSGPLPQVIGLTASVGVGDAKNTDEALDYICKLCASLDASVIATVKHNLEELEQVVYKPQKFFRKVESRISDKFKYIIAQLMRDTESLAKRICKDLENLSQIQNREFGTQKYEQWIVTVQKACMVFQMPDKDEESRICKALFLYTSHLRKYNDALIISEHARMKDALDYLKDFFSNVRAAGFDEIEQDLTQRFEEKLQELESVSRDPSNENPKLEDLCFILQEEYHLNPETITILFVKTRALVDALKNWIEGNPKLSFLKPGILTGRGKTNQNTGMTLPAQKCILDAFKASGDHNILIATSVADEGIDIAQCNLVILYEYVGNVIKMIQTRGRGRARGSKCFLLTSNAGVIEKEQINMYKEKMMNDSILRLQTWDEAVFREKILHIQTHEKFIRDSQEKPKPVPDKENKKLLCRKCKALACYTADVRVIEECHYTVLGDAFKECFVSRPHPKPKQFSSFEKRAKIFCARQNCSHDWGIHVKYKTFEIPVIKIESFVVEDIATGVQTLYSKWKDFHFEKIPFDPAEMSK
Assay: fluorescence anisotropy
Conditions: 5 mM ATP, 5 mM Mg2+, Fluorescence anisotropy: 25 mM HEPES pH 7, 50 mM KCl, 5 mM MgCl2, 1 mM DTT, 10 nM RNA, room temperature, recombinant protein, residues 1-925, protein details: N-terminal His-tag, label: 5'-Cy3

“CCACCCGCCCCCCUAGUGAGGGGGGCGGGCC [Cy3-hpRNA (14mer stem hairpin)]”: binds more weakly.
